# According to the supplement of paper PMC6331611:
# ± gives the standard deviation of the averaged measurements. Whole data set: some 1,600 compounds, median “normalized intracellular growth (luminescence, IQM-normalized) in RAW264.7 macrophages” near 1, cut for the lowest 2% near 0.43. The list shows a part of the results.
# System: Salmonella enterica serovar Typhimurium SL1344
# Test: normalized intracellular growth (luminescence, IQM-normalized) in RAW264.7 macrophages (fraction of plate interquartile mean); higher = more bacterial growth (less inhibition)
# Conditions: 10 µM
Structure (SMILES),normalized intracellular growth (time point: T3 (3 h)),normalized intracellular growth (time point: Tfinal (~6 h))
COc1ccc2[nH]c([S+]([O-])Cc3ncc(C)c(OC)c3C)nc2n1 (stereo not given),1.05 ± 0.044,0.995 ± 0.12
C[C@]12CC[C@@H]3c4ccc(O)cc4CC[C@H]3[C@@H]1CC[C@@H]2O,0.999 ± 0.079,1.18 ± 0.13
CCN(CC)C(=O)c1cccc(C)c1,1.03 ± 0.016,1.117 ± 0.0076
CCN(CC)C(=O)c1cccnc1,1.08 ± 0.055,1.07 ± 0.069
CCCN(CCC)S(=O)(=O)c1ccc(C(=O)O)cc1,1.04 ± 0.093,1.09 ± 0.13
CCCCCCCCCCCCCCCCCCCCCCO,1.07 ± 0.025,1.22 ± 0.034
COc1ccc(O)cc1,1.05 ± 0.061,0.79 ± 0.29
CC(=O)NC(Cc1ccccc1)C(=O)O (stereo not given),1 ± 0.073,1.01 ± 0.064
CCCCCCOC(=O)NC(=N)c1ccc(NCc2nc3cc(C(=O)N(CCC(=O)OCC)c4ccccn4)ccc3n2C)cc1,1.02 ± 0.01,0.97 ± 0.034
NCCCC(=O)O [gamma-AMINOBUTYRIC ACID],0.9762 ± 0.0094,1.05 ± 0.096
CC12CCC(CC1=O)C2(C)C (stereo not given),0.969 ± 0.012,1.09 ± 0.035
C[C@@H]1NC(=O)[C@@H](N)CNC(=O)[C@H](C2CCNC(=N)N2)NC(=O)/C(=C/NC(N)=O)NC(=O)[C@H](CNC(=O)CC(N)CCCN)NC1=O.N=C1NCC[C@H]([C@@H]2NC(=O)/C(=C/NC(N)=O)NC(=O)[C@H](CNC(=O)C[C@@H](N)CCCN)NC(=O)[C@H](CO)NC(=O)[C@@H](N)CNC2=O)N1,0.976 ± 0.016,0.966 ± 0.059
CN[C@@H]1[C@@H](O[C@H]2O[C@H](CO)[C@@H](N)[C@H](O)[C@H]2O)OC2C[C@@H](N)[C@@H](O[C@H]3[C@H](O)[C@@H](O)[C@H](N)C[C@@H]3N)OC2[C@@H]1O (stereo not given in full),0.963 ± 0.061,1.02 ± 0.2
Cc1onc(-c2ccccc2Cl)c1C(=O)N[C@@H]1C(=O)N2[C@@H]1SC(C)(C)[C@@H]2C(=O)O,0.945 ± 0.044,0.866 ± 0.064
CN[C@@H]1[C@H](O)[C@H](NC)[C@H]2O[C@@]3(O)C(=O)C[C@@H](C)O[C@H]3O[C@@H]2[C@H]1O,0.922 ± 0.027,1.02 ± 0.047
NS(=O)(=O)c1cc2c(cc1Cl)NC(C(Cl)Cl)NS2(=O)=O (stereo not given),0.81 ± 0.047,1.04 ± 0.06
OCc1cccnc1,1.056 ± 0.0048,0.97 ± 0.051
CC(C)[N+](C)(CCOC(=O)C1c2ccccc2Oc2ccccc21)C(C)C,0.962 ± 0.079,1.08 ± 0.14
CN1CCC[C@@H]1Cc1c[nH]c2ccc(CCS(=O)(=O)c3ccccc3)cc12,1.02 ± 0.077,1.13 ± 0.27
CN(C)CCC=C1c2ccccc2COc2ccccc21,0.993 ± 0.068,0.919 ± 0.081
O=C(N[C@H](CO)[C@H](O)c1ccc([N+](=O)[O-])cc1)C(Cl)Cl,0.927 ± 0.049,0.163 ± 0.022
O=C(O)CCNC(=O)c1ccccc1,1.03 ± 0.03,1.06 ± 0.15
CCC[C@@H]1C[C@@H](C(=O)N[C@@H]([C@H]2O[C@H](SC)[C@H](O)[C@@H](O)[C@H]2O)[C@H](C)Cl)N(C)C1,0.976 ± 0.078,0.841 ± 0.06
C[n+]1c2cc(N)ccc2cc2ccc(N)cc21,1.2 ± 0.062,0.673 ± 0.08
CC(C)(CO)C(O)C(=O)NCCCO (stereo not given),0.954 ± 0.097,0.98 ± 0.12

# Some of the entries above in a different format:
Structure (SMILES) | normalized intracellular growth (time point: T3 (3 h)) | normalized intracellular growth (time point: Tfinal (~6 h))
COc1ccc2[nH]c([S+]([O-])Cc3ncc(C)c(OC)c3C)nc2n1 (stereo not given) | 1.05 ± 0.044 | 0.995 ± 0.12
CCN(CC)C(=O)c1cccc(C)c1 | 1.03 ± 0.016 | 1.117 ± 0.0076
CCN(CC)C(=O)c1cccnc1 | 1.08 ± 0.055 | 1.07 ± 0.069
CCCCCCCCCCCCCCCCCCCCCCO | 1.07 ± 0.025 | 1.22 ± 0.034
CCCCCCOC(=O)NC(=N)c1ccc(NCc2nc3cc(C(=O)N(CCC(=O)OCC)c4ccccn4)ccc3n2C)cc1 | 1.02 ± 0.01 | 0.97 ± 0.034
CC12CCC(CC1=O)C2(C)C (stereo not given) | 0.969 ± 0.012 | 1.09 ± 0.035
CN[C@@H]1[C@@H](O[C@H]2O[C@H](CO)[C@@H](N)[C@H](O)[C@H]2O)OC2C[C@@H](N)[C@@H](O[C@H]3[C@H](O)[C@@H](O)[C@H](N)C[C@@H]3N)OC2[C@@H]1O (stereo not given in full) | 0.963 ± 0.061 | 1.02 ± 0.2
Cc1onc(-c2ccccc2Cl)c1C(=O)N[C@@H]1C(=O)N2[C@@H]1SC(C)(C)[C@@H]2C(=O)O | 0.945 ± 0.044 | 0.866 ± 0.064
OCc1cccnc1 | 1.056 ± 0.0048 | 0.97 ± 0.051
O=C(N[C@H](CO)[C@H](O)c1ccc([N+](=O)[O-])cc1)C(Cl)Cl | 0.927 ± 0.049 | 0.163 ± 0.022
O=C(O)CCNC(=O)c1ccccc1 | 1.03 ± 0.03 | 1.06 ± 0.15
CCC[C@@H]1C[C@@H](C(=O)N[C@@H]([C@H]2O[C@H](SC)[C@H](O)[C@@H](O)[C@H]2O)[C@H](C)Cl)N(C)C1 | 0.976 ± 0.078 | 0.841 ± 0.06
CC(C)(CO)C(O)C(=O)NCCCO (stereo not given) | 0.954 ± 0.097 | 0.98 ± 0.12

# Additional results follow:

Structure (SMILES),normalized intracellular growth (time point: T3 (3 h)),normalized intracellular growth (time point: Tfinal (~6 h))
CCOc1ccc2ccccc2c1C(=O)N[C@@H]1C(=O)N2[C@@H]1SC(C)(C)[C@@H]2C(=O)O,0.9842 ± 0.0087,0.802 ± 0.22
CCN(CC)CCNC(=O)c1cc(Cl)c(N)cc1OC,1.03 ± 0.093,1.27 ± 0.16
CC1=NN(c2ccccc2)C(=O)C1,0.995 ± 0.046,0.986 ± 0.21
Cn1cnc2c1c(=O)[nH]c(=O)n2C,1.01 ± 0.02,0.999 ± 0.033
C1CCC(C(CC2CCCCN2)C2CCCCC2)CC1 (stereo not given),1.02 ± 0.058,0.933 ± 0.028
CN1CC(=O)N2[C@H](c3ccc4c(c3)OCO4)c3[nH]c4ccccc4c3C[C@@H]2C1=O,1.06 ± 0.072,0.783 ± 0.27
CCC/C=C\C=C/C(=O)N[C@@H](CC(N)=O)C(=O)NC(CC(N)=O)C(=O)N[C@@H](C(=O)N[C@H](CCCN)C(=O)N[C@@H](C(=O)N[C@@H](C(=O)N[C@@H](C(=O)N[C@H](C(=O)N[C@@H](Cc1ccccc1)C(=O)N[C@H](CCCN)C(=O)NC(C(=O)N[C@H](C(=O)NC(C(=O)NCC(=O)N[C@@H](CC(C)C)C(=O)N[C@H](C)C(=O)NC(C(=O)O)C1CCC(O)C(Cl)C1)C1CCC(O)CC1)[C@H](C)O)C1CCC(O)CC1)[C@H](C)O)C1CCC(O)CC1)C1CCC(O)CC1)[C@H](C)O)C1CCC(O)CC1 (stereo not given in full) [RAMOPLANIN [A2 shown; 2mM]],0.984 ± 0.051,1.17 ± 0.15
CC(=O)[C@@]1(O)CC[C@H]2[C@@H]3C[C@H](C)C4=CC(=O)C=C[C@]4(C)[C@@]3(F)[C@@H](O)C[C@@]21C,0.913 ± 0.062,0.873 ± 0.068
CCc1nc(N)nc(N)c1-c1ccc(Cl)cc1,1.08 ± 0.073,0.963 ± 0.052
COc1cc(C(=O)NCc2ccc(OCCN(C)C)cc2)cc(OC)c1OC,0.837 ± 0.065,0.89 ± 0.03
C#CCN[C@@H]1CCc2ccccc21,1.06 ± 0.027,1.12 ± 0.33
Cc1cc(C(C)(C)C)c(O)c(C(C)(C)C)c1,1.06 ± 0.046,0.834 ± 0.12
O=C(O)c1cn(C2CC2)c2cc(N3CCNCC3)c(F)cc2c1=O,1.14 ± 0.019,0.0127 ± 0.00088
CCOc1nc2cccc(C(=O)OCc3oc(=O)oc3C)c2n1Cc1ccc(-c2ccccc2-c2noc(=O)[nH]2)cc1,0.977 ± 0.072,1.13 ± 0.059
Cc1ccc(NC(=O)c2ccc(CN3CCN(C)CC3)cc2)cc1Nc1nccc(-c2cccnc2)n1,0.978 ± 0.042,1.16 ± 0.084
O=C(O)C(=O)O.[NH-][C@@H]1CCCC[C@H]1[NH-].[Pt+2],1.12 ± 0.059,1.2 ± 0.081
CCOC(=O)COc1ccc2c(=O)cc(-c3ccccc3)oc2c1,1.03 ± 0.065,0.945 ± 0.32
Clc1ccc(C(Cn2ccnc2)OCc2ccsc2Cl)c(Cl)c1 (stereo not given),0.977 ± 0.046,1.18 ± 0.079
C[C@](N)(Cc1ccc(O)c(O)c1)C(=O)O,1.04 ± 0.018,0.982 ± 0.017
O=C1/C(=C/c2cccs2)CCC/C1=C\c1cccs1,0.973 ± 0.059,1.06 ± 0.036
C[C@H]1c2cccc(O)c2C(=O)C2=C(O)[C@]3(O)C(=O)C(C(N)=O)=C(O)[C@@H](N(C)C)[C@@H]3[C@@H](O)[C@@H]21,0.73 ± 0.065,0.173 ± 0.025
O=C(O)c1cc(/N=N/c2ccc(O)c(C(=O)O)c2)ccc1O,0.988 ± 0.024,1.11 ± 0.019
CC(=O)NCCCS(=O)(=O)O,0.948 ± 0.025,0.841 ± 0.069
COc1ccc2c(c1OC)C(=O)O[C@@H]2[C@H]1c2c(cc3c(c2OC)OCO3)CCN1C,0.962 ± 0.046,1.0482 ± 0.00081
CCOC(=O)O[C@]1(C(=O)COC(=O)CC)CC[C@H]2[C@@H]3CCC4=CC(=O)C=C[C@]4(C)[C@H]3[C@@H](O)C[C@@]21C,1.03 ± 0.11,0.913 ± 0.12
